The other results are listed elsewhere or left out. At the low end of the ranking the order means little.
molecular target: T1, PUM1 PUF domain R1-QFR R2-VFQ R6-SWD S863Q + R864F + Q867R + N899V + Y900F + N1043S + Y1044W + Q1047D (UniProt Q14671); details: yeast three-hybrid, YBZ-1, SC-Leu-His + 0.5 mM 3-AT, 4 days
T1 sequence: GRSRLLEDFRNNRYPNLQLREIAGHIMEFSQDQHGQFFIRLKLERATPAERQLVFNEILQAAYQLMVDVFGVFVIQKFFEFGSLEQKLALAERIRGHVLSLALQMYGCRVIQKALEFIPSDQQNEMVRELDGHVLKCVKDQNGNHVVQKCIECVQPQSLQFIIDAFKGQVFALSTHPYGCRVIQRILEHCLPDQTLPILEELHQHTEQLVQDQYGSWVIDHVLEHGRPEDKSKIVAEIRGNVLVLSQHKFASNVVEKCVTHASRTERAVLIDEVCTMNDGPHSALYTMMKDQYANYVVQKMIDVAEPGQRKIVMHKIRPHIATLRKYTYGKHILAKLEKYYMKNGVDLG

Sequence	binding signal (log2 enrichment (interaction score))
GGCUAGAACUAGUGGAUCCCCCGGCGCCCGGCGGCUCGAGCCCGGGUAAGUUUACGAGGUCUGCAUGCCGCCGGGCGCCAUGCCUGCAGGUCGACUCUAGAAAACAUG	-6.54
GGCUAGAACUAGUGGAUCCCCCGGCGCCCGGCGGCUCGAGCCCGGGUAAGUAAUAGUCGUCUGCAUGCCGCCGGGCGCCAUGCCUGCAGGUCGACUCUAGAAAACAUG	-5.57
GGCUAGAACUAGUGGAUCCCCCGGCGCCCGGCGGCUCGAGCCCGGGUAAGUUUAAGAAGUCUGCAUGCCGCCGGGCGCCAUGCCUGCAGGUCGACUCUAGAAAACAUG	-6.45
GGCUAGAACUAGUGGAUCCCCCGGCGCCCGGCGGCUCGAGCCCGGGUAAGUUGACGUCGUCUGCAUGCCGCCGGGCGCCAUGCCUGCAGGUCGACUCUAGAAAACAUG	-4.61
GGCUAGAACUAGUGGAUCCCCCGGCGCCCGGCGGCUCGAGCCCGGGUAAGUCGAAGUAGUCUGCAUGCCGCCGGGCGCCAUGCCUGCAGGUCGACUCUAGAAAACAUG	-5.09
GGCUAGAACUAGUGGAUCCCCCGGCGCCCGGCGGCUCGAGCCCGGGUAAGUACACAAUGUCUGCAUGCCGCCGGGCGCCAUGCCUGCAGGUCGACUCUAGAAAACAUG	-5.48
GGCUAGAACUAGUGGAUCCCCCGGCGCCCGGCGGCUCGAGCCCGGGUAAGGUUACGUAGUCUGCAUGCCGCCGGGCGCCAUGCCUGCAGGUCGACUCUAGAAAACAUG	-6.33
GGCUAGAACUAGUGGAUCCCCCGGCGCCCGGCGGCUCGAGCCCGGGUAAGUGGAUGGAGUCUGCAUGCCGCCGGGCGCCAUGCCUGCAGGUCGACUCUAGAAAACAUG	-6.35

2 neighbouring entries from above:
Sequence	binding signal (log2 enrichment (interaction score))
GGCUAGAACUAGUGGAUCCCCCGGCGCCCGGCGGCUCGAGCCCGGGUAAGUCGAAGUAGUCUGCAUGCCGCCGGGCGCCAUGCCUGCAGGUCGACUCUAGAAAACAUG	-5.09
GGCUAGAACUAGUGGAUCCCCCGGCGCCCGGCGGCUCGAGCCCGGGUAAGUACACAAUGUCUGCAUGCCGCCGGGCGCCAUGCCUGCAGGUCGACUCUAGAAAACAUG	-5.48

From article PMC8384837
